No constants are given. Whether binding was seen depends on the method and setting. For part of these data: Binding seen in cells or lysates may run through a third protein. Some binding calls cover weakened binding; strength is not graded here. For part of these data: Where a sequence is shown, tags or fusion partners need not be part of it.
B1: HA-HERP1 (protein, UniProt Q15011 1-391)
chain: MESETEPEPVTLLVKSPNQRHRDLELSGDRGWSVGHLKAHLSRVYPERPRPEDQRLIYSGKLLLDHQCLRDLLPKQEKRHVLHLVCNVKSPSKMPEINAKVAESTEEPAGSNRGQYPEDSSSDGLRQREVLRNLSSPGWENISRPEAAQQAFQGLGPGFSGYTPYGWLQLSWFQQIYARQYYMQYLAATAASGAFVPPPSAQEIPVVSAPAPAPIHNQFPAENQPANQNAAPQVVVNPGANQNLRMNAQGGPIVEEDDEINRDWLDWTYSAATFSVFLSILYFYSSLSRFLMVMGATVVMYLHHVGWFPFRPRPVQNFPNDGPPPDVVNQDPNNNLQEGTDPETEDPNHLPPDRDVLDGEQTSPSFMSTAWLVFKTFFASLLPEGPPAIAN

Amino acid sequences for entries named in this document (tags omitted). A change or cut given only in a name is not applied to a line headed by its entry. Chains listed by the source or under a name are the forms on record and can include a tag or linker.
UniProt Q9BY78: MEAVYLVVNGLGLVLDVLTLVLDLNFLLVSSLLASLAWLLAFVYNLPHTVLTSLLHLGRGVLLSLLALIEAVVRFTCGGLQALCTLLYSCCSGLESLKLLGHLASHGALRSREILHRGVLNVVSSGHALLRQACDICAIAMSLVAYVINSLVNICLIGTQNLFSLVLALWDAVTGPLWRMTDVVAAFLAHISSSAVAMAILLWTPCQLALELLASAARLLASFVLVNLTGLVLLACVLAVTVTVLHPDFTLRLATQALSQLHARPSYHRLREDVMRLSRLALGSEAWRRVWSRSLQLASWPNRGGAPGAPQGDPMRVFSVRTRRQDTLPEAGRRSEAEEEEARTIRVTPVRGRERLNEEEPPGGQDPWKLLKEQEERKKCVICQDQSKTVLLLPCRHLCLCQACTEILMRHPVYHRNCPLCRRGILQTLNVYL
Rhodamine-RING-I382R (304–433) (Q9BY78, form named): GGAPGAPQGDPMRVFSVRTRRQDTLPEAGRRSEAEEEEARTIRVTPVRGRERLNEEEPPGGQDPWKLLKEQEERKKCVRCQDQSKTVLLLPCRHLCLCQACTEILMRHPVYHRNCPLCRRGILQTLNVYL
UniProt P08670: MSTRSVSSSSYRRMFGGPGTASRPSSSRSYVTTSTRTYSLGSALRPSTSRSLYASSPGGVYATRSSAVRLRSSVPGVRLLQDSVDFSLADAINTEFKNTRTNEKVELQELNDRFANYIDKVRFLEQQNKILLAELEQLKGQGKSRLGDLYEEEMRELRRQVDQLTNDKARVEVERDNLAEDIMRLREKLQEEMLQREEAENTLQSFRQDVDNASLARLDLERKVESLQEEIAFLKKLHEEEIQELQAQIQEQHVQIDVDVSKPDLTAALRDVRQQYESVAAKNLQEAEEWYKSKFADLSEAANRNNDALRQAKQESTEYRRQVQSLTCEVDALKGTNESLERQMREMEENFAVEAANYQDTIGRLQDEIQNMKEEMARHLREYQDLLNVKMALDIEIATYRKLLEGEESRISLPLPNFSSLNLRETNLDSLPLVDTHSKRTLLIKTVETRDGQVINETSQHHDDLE
UniProt Q86TM6: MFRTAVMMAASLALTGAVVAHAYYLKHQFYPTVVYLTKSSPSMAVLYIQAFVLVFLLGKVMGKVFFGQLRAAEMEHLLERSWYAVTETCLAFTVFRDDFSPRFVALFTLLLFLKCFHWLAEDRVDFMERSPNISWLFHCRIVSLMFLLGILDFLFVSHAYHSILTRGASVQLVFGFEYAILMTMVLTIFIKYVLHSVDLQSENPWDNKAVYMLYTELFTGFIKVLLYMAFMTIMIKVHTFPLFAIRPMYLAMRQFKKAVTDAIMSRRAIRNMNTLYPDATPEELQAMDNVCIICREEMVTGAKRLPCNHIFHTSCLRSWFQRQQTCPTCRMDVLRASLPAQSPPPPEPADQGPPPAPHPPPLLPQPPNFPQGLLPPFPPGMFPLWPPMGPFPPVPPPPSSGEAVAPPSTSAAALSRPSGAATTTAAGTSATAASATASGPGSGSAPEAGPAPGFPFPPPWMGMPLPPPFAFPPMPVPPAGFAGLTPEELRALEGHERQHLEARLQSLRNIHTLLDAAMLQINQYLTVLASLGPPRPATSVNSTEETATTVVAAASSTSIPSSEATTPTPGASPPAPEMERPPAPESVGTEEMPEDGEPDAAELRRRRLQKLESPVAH

What was measured:
[1] = target: RFP-RNF26 I382R (UniProt Q9BY78); assay: co-IP; U2OS co-transfected with RFP-RNF26 variants and HA-HERP1 or HA-HRD1; lysis in 1% DMNG, 150 mM NaCl, 50 mM Tris-HCl pH 7.5, 5 mM MgCl2; RFP-TRAP beads; western blot
[2] = target: RFP-RNF26 WT (UniProt Q9BY78); assay: as above
[3] = target: recombinant His-tagged vimentin (UniProt P08670); assay: in vitro deposition on pre-assembled filaments, confocal fluorescence microscopy; Rhodamine-RING-I382R on pre-assembled His-vimentin filaments; both purified
[4] = target: recombinant His-tagged vimentin (UniProt P08670); assay: pull-down; 3 μg his-Vim and 3 μg Rho-RNF26tail in PBS, 30 min at 37°C; his-Vim precipitated on Ni-NTA beads; in-gel Rhodamine fluorescence and vimentin blot; both purified

Row | Molecule | binding [1] | binding [2] | binding [3] | binding [4]
1 | HA-HRD1 (from UniProt Q86TM6 1-617) | binds | binds |  | 
2 | Rhodamine-RING-I382R (304–433) (from UniProt Q9BY78 304-433) (domain or fragment) |  |  | binds | binds
3 | B1 | binds | binds |  | 
